Some of these results come from one statement about several compounds together. At least one compound was matched to its structure with a doubt left.
Test system: L1210
Assay: L1210 cytotoxic potency

Compound | loss in activity on introduction of unsaturation (66 vs. 69 and 71 vs. 70) | additional increase in potency beyond most C5 substituted derivatives
O=C1C=C2N(C(=O)c3cc4c(ccc5occc54)[nH]3)CC3CC23c2ccccc21 [compound 71, N^2-[(Pyrrolo[3,2-e]benzofuran-7-yl)carbonyl]-(8 bR,9aS)-1,2,9,9a-tetrahydrocyclopropa[c]-benz[e]indol-4-one] | > 10 fold | –
CCC(=O)c1ccc2[nH]c(C(=O)N3CC4CC45C3=CC(=O)c3ccccc35)cc2c1 [compound 56, N^2-[(5-Propionylindole-2-yl)carbonyl]-(8bR,9aS)-1,2,9,9a-tetrahydrocyclopropa[c]benz[e]-indol-4-one] | – | ≥ 10 fold
CC(=O)c1ccc2[nH]c(C(=O)N3C[C@H]4C[C@@]45C3=CC(=O)c3ccccc35)cc2c1 [compound 54, N^2-[(5-Acetylindole-2-yl)carbonyl]-(8bR,9aS)-1,2,9,9a-tetrahydrocyclopropa[c]benz[e]in-dol-4-one] | – | ≥ 10 fold

From patent US20050026987A1, “CBI analogues of the duocarmycins and CC-1065” (The Scripps Research Institute, priority 2003, published 2005)
